The subject of this assay is BDF1 mice, B16 melanoma s.c., survival/tumor T/C. Briefly: NCI In Vivo Anticancer Drug Screen. Data for tumor model B16 Melanoma (subcutaneous) in B6D2F1 (BDF1) mice. On the procedure:
The antitumor activity of compounds was measured in mice bearing transplantable tumors. Survival or tumor size were measured and the results are expressed as the measurement made in the treated group (T) divided by the measurement made in the vehicle treated control group (C). The tumor model used in this assay is B16 Melanoma (subcutaneous) in B6D2F1 (BDF1) mice

[1] abbreviates: T/C endpoint: median survival time, dose: 8.0 mg/kg/injection, schedule: Q01DX009 (ip), vehicle: water, higher T/C = longer survival.

The list is a part of this screen's results and no random one: it is rich in T/C values a quarter to a half above the control, in often repeated tests (any T/C) and in doses without a T/C. Further doses and runs are listed elsewhere. T/C: endpoint of the treated group in % of that of the vehicle group. Schedule codes are those of the source, taken here to give the interval after Q, in days (D) or hours (H), and the number of doses after X. Some entries give survivors of the animals treated and no T/C: the source holds a T/C of zero for them, seemingly a mark for toxic or unscored doses. Some doses without a T/C left all or most animals alive at the check, yet need not have been tolerated: the source hardly ever lists a survival T/C far under the control, and the zero likely stands for such cases as well. Counts of survivors are from the toxicity check (mostly the fifth day) where no day follows; animals may have died later. Some doses were run more than once; the values are given in rising order. Where survival is the endpoint, the PubChem record calls one and a half times the control and up active, and a quarter to a half above the control has no call in these data; cut-offs in other NCI protocols can differ. Some T/C values carry the count of animals alive at the toxicity check (mostly the fifth day); without a count, all were alive then.

The source of these data is PubChem BioAssay AID194 (DTP/NCI, 2004).

For the molecule `N=[N+]=CC(=O)CCC(NC(=O)C(CCC(=O)C=[N+]=N)NC(=O)CCC(N)C(=O)O)C(=O)O` (centres undefined), the survivor count is reported as 10 of 10 (T/C endpoint: median survival time, dose: 0.2 mg/kg/injection, schedule: Q01DX009 (ip), vehicle: saline, higher T/C = longer survival); 10 of 10 (T/C endpoint: median survival time, dose: 0.4 mg/kg/injection, schedule: Q01DX009 (ip), vehicle: saline, higher T/C = longer survival); 10 of 10 (T/C endpoint: median survival time, dose: 0.8 mg/kg/injection, schedule: Q01DX009 (ip), vehicle: saline, higher T/C = longer survival); 9 of 10 (T/C endpoint: median survival time, dose: 1.6 mg/kg/injection, schedule: Q01DX009 (ip), vehicle: saline, higher T/C = longer survival); 10 of 10 (T/C endpoint: median survival time, dose: 3.2 mg/kg/injection, schedule: Q01DX009 (ip), vehicle: saline, higher T/C = longer survival); 8 of 10 (T/C endpoint: median survival time, dose: 6.4 mg/kg/injection, schedule: Q01DX009 (ip), vehicle: saline, higher T/C = longer survival). In addition, the survivor count (T/C endpoint: median tumor weight (est.), dose: 0.4 mg/kg/injection, schedule: Q01DX009 (ip), vehicle: saline, higher T/C = larger tumour) is listed as 2 of 6.

With `CC1(C)N=C(N)N=C(N)N1c1ccc(CCCCc2ccc(S(=O)(=O)F)cc2Cl)c(Cl)c1`, the T/C by setting is: (T/C endpoint: median survival time, dose: 3.13 mg/kg/injection, schedule: Q01DX009 (ip), vehicle: saline, higher T/C = longer survival) 127 % of control; (T/C endpoint: median survival time, dose: 9.4 mg/kg/injection, schedule: Q04DX003 (ip), vehicle: saline, higher T/C = longer survival) 128 % of control. Besides, the survivor count (T/C endpoint: median survival time, dose: 50.0 mg/kg/injection, schedule: Q01DX009 (ip), vehicle: saline, higher T/C = longer survival) is reported as 6 of 6.

As for `Cc1c(N)nc(C(CC(N)=O)NCC(N)C(N)=O)nc1C(=O)NC(C(=O)NC(C)C(O)C(C)C(=O)NC(C(=O)NCCc1nc(-c2nc(C(=O)NCCCNC(C)c3ccccc3)cs2)cs1)C(C)O)C(OC1OC(CO)C(O)C(O)C1OC1OC(CO)C(O)C(OC(N)=O)C1O)c1cnc[nH]1` (centres undefined), the T/C (T/C endpoint: median survival time, dose: 0.5 mg/kg/injection, schedule: Q01DX009 (ip), vehicle: water, higher T/C = longer survival) is 135 % of control [11 of 12 alive] and the T/C (T/C endpoint: median survival time, dose: 1.0 mg/kg/injection, schedule: Q01DX009 (ip), vehicle: water, higher T/C = longer survival) is 134 % of control [9 of 10 alive]. Besides, under setting [1], the survivor count is listed as 12 of 12.

Regarding `Cc1nc(N)nc(N)c1-c1ccc(Cl)c(Cl)c1`, the survivor count (T/C endpoint: median survival time, dose: 16.0 mg/kg/injection, schedule: Q02DX009 (ip), vehicle: Klucel (hydroxypropylcellulose) (HPC), higher T/C = longer survival) is given as 12 of 12.

Consider `CC(=O)O[C@H]1C(=O)[C@@]2(C)[C@H]([C@H](OC(=O)c3ccccc3)[C@]3(O)C[C@H](OC(=O)[C@H](O)[C@@H](NC(=O)c4ccccc4)c4ccccc4)C(C)=C1C3(C)C)[C@]1(OC(C)=O)CO[C@@H]1C[C@@H]2O`, for which the T/C (T/C endpoint: median survival time, dose: 4.44 mg/kg/injection, schedule: Q01DX009 (ip), vehicle: Klucel (hydroxypropylcellulose) (HPC), higher T/C = longer survival) is 126 % of control. In addition, the survivor count runs as follows: (T/C endpoint: median survival time, dose: 6.67 mg/kg/injection, schedule: Q01DX009 (ip), vehicle: other, higher T/C = longer survival) 10 of 10; (T/C endpoint: median survival time, dose: 10.0 mg/kg/injection, schedule: Q01DX009 (ip), vehicle: Klucel (hydroxypropylcellulose) (HPC), higher T/C = longer survival) 10 of 10; (T/C endpoint: median survival time, dose: 10.0 mg/kg/injection, schedule: Q01DX009 (ip), vehicle: other, higher T/C = longer survival) 10 of 10; (T/C endpoint: median survival time, dose: 15.0 mg/kg/injection, schedule: Q01DX009 (ip), vehicle: Klucel (hydroxypropylcellulose) (HPC), higher T/C = longer survival) 10 of 10; (T/C endpoint: median survival time, dose: 15.0 mg/kg/injection, schedule: Q01DX009 (ip), vehicle: other, higher T/C = longer survival) 10 of 10; (T/C endpoint: median survival time, dose: 22.5 mg/kg/injection, schedule: Q01DX009 (ip), vehicle: Klucel (hydroxypropylcellulose) (HPC), higher T/C = longer survival) 10 of 10. Also, the survivor count (T/C endpoint: median survival time, dose: 22.5 mg/kg/injection, schedule: Q01DX009 (ip), vehicle: other, higher T/C = longer survival) is reported as 10 of 10.

As to `C[C@H](CN1CC(=O)NC(=O)C1)N1CC(=O)NC(=O)C1`, the T/C reads like this: under setting [1], 131 % of control; (T/C endpoint: median survival time, dose: 64.0 mg/kg/injection, schedule: Q01DX009 (ip), vehicle: saline, higher T/C = longer survival) 136 % of control; (T/C endpoint: median survival time, dose: 400.0 mg/kg/injection, schedule: Q04DX003 (ip), vehicle: saline, higher T/C = longer survival) 128 % of control. Besides, the survivor count reads like this: (T/C endpoint: median survival time, dose: 64.0 mg/kg/injection, schedule: Q01DX009 (ip), vehicle: water, higher T/C = longer survival) 10 of 10; (T/C endpoint: median survival time, dose: 128.0 mg/kg/injection, schedule: Q01DX009 (ip), vehicle: water, higher T/C = longer survival) 9 of 10.

Take `O=NN(CCF)C(=O)NC1CCCCC1`: the T/C by setting is: (T/C endpoint: median survival time, dose: 2.5 mg/kg/injection, schedule: Q01HX012 (ip), vehicle: Klucel (hydroxypropylcellulose) (HPC), higher T/C = longer survival) 134 % of control; (T/C endpoint: median survival time, dose: 3.75 mg/kg/injection, schedule: Q03HX004 (ip), vehicle: Klucel (hydroxypropylcellulose) (HPC), higher T/C = longer survival) 126 % of control; (T/C endpoint: median survival time, dose: 8.64 mg/kg/injection, schedule: Q01DX007 (ip), vehicle: Klucel (hydroxypropylcellulose) (HPC), higher T/C = longer survival) 129 % of control; (T/C endpoint: median survival time, dose: 10.5 mg/kg/injection, schedule: Q01DX007 (ip), vehicle: Klucel (hydroxypropylcellulose) (HPC), higher T/C = longer survival) 144 % of control; (T/C endpoint: median survival time, dose: 23.7 mg/kg/injection, schedule: Q01DX001 (ip), vehicle: Klucel (hydroxypropylcellulose) (HPC), evaluated on day 16, higher T/C = longer survival) 134 % of control; (T/C endpoint: median survival time, dose: 23.7 mg/kg/injection, schedule: Q01DX001 (ip), vehicle: Klucel (hydroxypropylcellulose) (HPC), evaluated on day 47, higher T/C = longer survival) 132 % of control. Further, the T/C (T/C endpoint: median survival time, dose: 35.6 mg/kg/injection, schedule: Q01DX001 (ip), vehicle: Klucel (hydroxypropylcellulose) (HPC), evaluated on day 16, higher T/C = longer survival) was 134 % of control; the T/C (T/C endpoint: median survival time, dose: 35.6 mg/kg/injection, schedule: Q01DX001 (ip), vehicle: Klucel (hydroxypropylcellulose) (HPC), evaluated on day 47, higher T/C = longer survival) was 135 % of control [9 of 10 alive on day 47]; the T/C (T/C endpoint: median tumor weight (est.), dose: 0.63 mg/kg/injection, schedule: Q01HX012 (ip), vehicle: Klucel (hydroxypropylcellulose) (HPC), evaluated on day 14, higher T/C = larger tumour) was 127 % of control. The survivor count runs as follows: (T/C endpoint: median survival time, dose: 10.0 mg/kg/injection, schedule: Q01HX012 (ip), vehicle: Klucel (hydroxypropylcellulose) (HPC), higher T/C = longer survival) 5 of 8; (T/C endpoint: median survival time, dose: 20.0 mg/kg/injection, schedule: Q01HX012 (ip), vehicle: Klucel (hydroxypropylcellulose) (HPC), higher T/C = longer survival) 0 of 8; (T/C endpoint: median survival time, dose: 24.0 mg/kg/injection, schedule: Q01DX007 (ip), vehicle: Klucel (hydroxypropylcellulose) (HPC), higher T/C = longer survival) 5 of 10 on day 55; (T/C endpoint: median survival time, dose: 40.0 mg/kg/injection, schedule: Q02HX006 (ip), vehicle: Klucel (hydroxypropylcellulose) (HPC), higher T/C = longer survival) 0 of 8; (T/C endpoint: median survival time, dose: 53.8 mg/kg/injection, schedule: Q01DX001 (ip), vehicle: Klucel (hydroxypropylcellulose) (HPC), higher T/C = longer survival) 3 of 10 on day 47; (T/C endpoint: median survival time, dose: 60.0 mg/kg/injection, schedule: Q03HX004 (ip), vehicle: Klucel (hydroxypropylcellulose) (HPC), higher T/C = longer survival) 2 of 8. The survivor count reads like this: (T/C endpoint: median survival time, dose: 80.0 mg/kg/injection, schedule: Q01DX001 (ip), vehicle: Klucel (hydroxypropylcellulose) (HPC), higher T/C = longer survival) 1 of 10 on day 47; (T/C endpoint: median survival time, dose: 120.0 mg/kg/injection, schedule: Q01DX001 (ip), vehicle: Klucel (hydroxypropylcellulose) (HPC), higher T/C = longer survival) 1 of 10 on day 47 and 5 of 8; (T/C endpoint: median survival time, dose: 180.0 mg/kg/injection, schedule: Q01DX001 (ip), vehicle: Klucel (hydroxypropylcellulose) (HPC), higher T/C = longer survival) 0 of 10 on day 47; (T/C endpoint: median survival time, dose: 240.0 mg/kg/injection, schedule: Q01DX001 (ip), vehicle: Klucel (hydroxypropylcellulose) (HPC), higher T/C = longer survival) 0 of 8; (T/C endpoint: median tumor weight (est.), dose: 10.0 mg/kg/injection, schedule: Q01HX012 (ip), vehicle: Klucel (hydroxypropylcellulose) (HPC), higher T/C = larger tumour) 3 of 8 on day 14; (T/C endpoint: median tumor weight (est.), dose: 20.0 mg/kg/injection, schedule: Q01HX012 (ip), vehicle: Klucel (hydroxypropylcellulose) (HPC), higher T/C = larger tumour) 0 of 8 on day 14. Further, the survivor count (T/C endpoint: median tumor weight (est.), dose: 20.0 mg/kg/injection, schedule: Q02HX006 (ip), vehicle: Klucel (hydroxypropylcellulose) (HPC), higher T/C = larger tumour) is on record as 5 of 8 on day 14; the survivor count (T/C endpoint: median tumor weight (est.), dose: 40.0 mg/kg/injection, schedule: Q02HX006 (ip), vehicle: Klucel (hydroxypropylcellulose) (HPC), higher T/C = larger tumour) is recorded as 0 of 8 on day 14; the survivor count (T/C endpoint: median tumor weight (est.), dose: 60.0 mg/kg/injection, schedule: Q03HX004 (ip), vehicle: Klucel (hydroxypropylcellulose) (HPC), higher T/C = larger tumour) is recorded as 0 of 8 on day 14; the survivor count (T/C endpoint: median tumor weight (est.), dose: 120.0 mg/kg/injection, schedule: Q01DX001 (ip), vehicle: Klucel (hydroxypropylcellulose) (HPC), higher T/C = larger tumour) is listed as 4 of 8 on day 14; the survivor count (T/C endpoint: median tumor weight (est.), dose: 240.0 mg/kg/injection, schedule: Q01DX001 (ip), vehicle: Klucel (hydroxypropylcellulose) (HPC), higher T/C = larger tumour) is 0 of 8 on day 14.

Take `CC1(C)N=C(N)N=C(N)N1c1ccc(CNC(=O)Nc2cccc(S(=O)(=O)F)c2)cc1`: the T/C (T/C endpoint: median survival time, dose: 150.0 mg/kg/injection, schedule: Q04DX003 (ip), vehicle: saline, higher T/C = longer survival) was 125 % of control.
